Reference: PubChem BioAssay AID1688 (National Center for Advancing Translational Sciences (NCATS), 2009)
Among all 220,000 compounds or so, about 2,400 (1.1%) were called active. Inconclusive results, whose numbers are uncertain, are shown with a selection of clear calls. Calls follow the shape of the dose curve; as a rule, active = well fitted inhibition curve with a large enough effect; inconclusive = small, poorly fitted or top-dose-only effect, or effect the other way; inactive = no such curve, though single readings can be large or run the other way. A potency beside an inconclusive call is a rough fit, not a confirmed value.

Test: qHTS Multiplex Assay to Identify Dual Action Probes in a Cell Model of Huntington: Aggregate Formation (GFP); also: nearly all actives have a fitted effect of over 60% in size
Conditions: PC12 HttQ103-GFP aggregates, Acumen cytometry, 40 h; activity change, negative = inhibition: at 46.1 µM (top of the series) unless noted
In short: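 Compounds (qHTS titration) were added to PC12 cells expressing an ecdysone-driven HTT exon 1 Q103–GFP fusion after induction with 100 nM tebufenozide. Aggregate formation was measured as GFP objects in cell lysates.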
% is scaled to controls: 0 for no effect and ±100 for the full control effect; potency is read from the fitted curve at half-maximal effect.

Structure (SMILES) | Potency | activity change, negative = inhibition
Cc1ccc(CN2CCN(/N=C/c3sccc3C)CC2)c(C)c1 | inconclusive: 28.2 µM [inhibitor, single point] | –
CCn1c(SCc2nc(-c3ccc(OC)c(OC)c3)no2)nnc1-c1cccs1 | inconclusive: 35.5 µM [inhibitor, partial curve, poor fit] | –
CCN(Cc1ccccc1)S(=O)(=O)c1ccc(C(=O)Nc2nnc(-c3ccccc3OC)o2)cc1 | active: 22.4 µM | –
C[C@H]1[C@@H](OC(=O)CCC(=O)O)OC2OC3(C)CC[C@H]4[C@H](C)CC[C@@H]1[C@@]24OO3 (stereo partly drawn) | active: 3.16 µM | –
COc1ccccc1NS(=O)(=O)c1cc(NC(=O)c2ccccc2F)ccc1N1CCOCC1 | inconclusive: 11.2 µM [activator, partial curve] | –
Cc1nnc(SCC(=O)Nc2ncc3c(n2)CC(C)(C)CC3=O)s1 | inconclusive: 0.562 µM [inhibitor, partial curve, poor fit] | –
Cc1ccc(NC(=O)CC2S/C(=N/N=C3\CCCc4ccccc43)NC2=O)cc1 (stereo not drawn) | inconclusive: 6.31 µM [activator, partial curve] | –
O=C(c1ccc(S(=O)(=O)Nc2ccccc2)cc1)N1CCOCC1 | inactive | –
Cc1cc(NC(=O)CSc2n[nH]c(-c3cccs3)n2)no1 | inactive | –
CCCCNC(=S)Nc1ccccc1Cc1ccccc1 | inconclusive: 11.2 µM [inhibitor, single point] | –
COc1ccc(Cl)cc1Nc1nc(NCCO)nc(N2CCCC2)n1 | inactive | –
CN1CCC(=NNC(=O)c2cn(-c3ccccc3)nc2-c2ccccc2)CC1 | inactive | –
COc1ccc(CCNC(=O)Cn2nc(C(=O)O)c3ccccc3c2=O)cc1OC | inconclusive: 22.4 µM [activator, single point] | –
COc1ccc(Oc2coc3cc(OC(=O)/C=C/c4ccc(F)cc4)ccc3c2=O)cc1 | inconclusive: 3.16 µM [inhibitor, single point] | –
CC(=O)c1ccc(OCCn2cnc3ccccc32)cc1 | inconclusive: 15.8 µM [inhibitor, single point] | –
COc1cccc(-n2c(-c3ccc4[nH]c(C)c(C)c4c3)n[nH]c2=S)c1 | inconclusive: 22.4 µM [activator, partial curve] | –
O=C(Nc1cccc2nsnc12)c1ccc(F)cc1 | inconclusive: 3.55 µM [activator, partial curve] | –
COc1ccc(NC(=O)c2cn(-c3ccccc3)nc2-c2cc3ccccc3o2)cc1 | inconclusive: 6.31 µM [inhibitor, single point] | –
O=C(NCc1cccs1)c1ccc([N+](=O)[O-])cc1Cl | inactive | –
Cc1cccc(NC2=C/C(=N/S(=O)(=O)c3cccs3)c3ccccc3C2=O)c1 | inactive | –
Cc1ccc(NC(=O)C(=O)Nc2ccccn2)cc1 | inconclusive: 35.5 µM [activator, single point] | –
CC(C)CNC(=S)N1CCC(c2nc(-c3ccc(F)cc3)no2)CC1 | inconclusive: 14.1 µM [inhibitor, single point] | –
NC(=O)c1ccc(NC(=O)COC(=O)c2c3c(nc4ccccc24)/C(=C\c2ccc4c(c2)OCO4)CCC3)cc1 | inconclusive: 4.47 µM [inhibitor, full curve, poor fit] | –
O=[N+]([O-])c1nn(-c2ccc3c(c2)OCCO3)n(O)c1=Nc1ccccc1 | inactive | –
O=C1c2ccccc2C(=O)N1CN(C(=O)COc1ccc(Cl)cc1Cl)c1cccc(F)c1 | inconclusive: 2.24 µM [activator, partial curve] | –

Structure (SMILES) | Potency | activity change, negative = inhibition
COc1ccccc1N1Cc2ccccc2C1 | inactive | –
O=C(NNC(=O)C1CCN(S(=O)(=O)c2ccc(Cl)cc2)CC1)c1ccc(S(=O)(=O)N2CCCCC2)cc1 | active: 25.1 µM | –
CC(=O)Cc1nsc(NC(=O)c2oc(-c3ccccc3Cl)cc2C)n1 | inconclusive: 12.6 µM [inhibitor, partial curve] | –
Cc1cc(OCC(=O)Nc2ccc(F)c(F)c2)nc(C(C)C)n1 | inactive | –
COc1ccccc1N1CCN(C(=O)/C=C/c2cccs2)CC1 | inconclusive: 1.26 µM [inhibitor, partial curve] | –
NCC1CCC(N)C(O[C@@H]2C(O)[C@H](O[C@H]3OC(CO)C(O)C(N)C3O)[C@@H](N)C[C@H]2N)O1 (stereo partly drawn) | inactive | –
O=C(OC(C(=O)NCc1ccc2c(c1)OCO2)c1ccccc1F)c1ccco1 (stereo not drawn) | inactive | –
CSc1nnc2c3ccccc3n(CCc3ccccc3)c2n1 | inconclusive: 14.1 µM [inhibitor, single point] | –
CSc1nc2cc(F)c(F)cc2n1C | inconclusive: 35.5 µM [inhibitor, single point] | –
COc1cc(OC)c(C2CC(=O)N3CN(c4ccccc4C)CSC3=C2C#N)cc1OC (stereo not drawn) | inactive | –
CN1CCN(c2ccc(Cl)cc2NC(=O)c2cccc(S(=O)(=O)N(C)C)c2)CC1 | inconclusive: 0.316 µM [inhibitor, full curve, poor fit] | –
O=C1NCN(c2ccccc2)C12CCN(CCCC(c1ccc(F)cc1)c1ccc(F)cc1)CC2 | active: 14.1 µM | –
CCCSc1nnc(CNC(=O)C23CC4CC(CC(C4)C2)C3)n1Cc1ccccc1 | inconclusive: 14.1 µM [inhibitor, single point] | –
O=C(C1CC(c2ccccc2O)=NO1)N1CCc2ccccc2C1 (stereo not drawn) | – | inactive: 4.51% [at 9.22 µM]
Oc1ccc2ccccc2c1N=Nc1ccccn1 | inconclusive: 3.16 µM [inhibitor, full curve, poor fit] | –
Cc1nc2ccccc2nc(=O)c1NNc1ccccc1 | inconclusive: 20 µM [activator, single point] | –
CCOC(=O)Cc1cc(-c2ccc(F)cc2)nc2ccc3ccccc3c12 | inconclusive: 1.41 µM [activator, partial curve] | –
Oc1ccc(-c2csc(-c3c[nH]c4ccccc34)n2)c(O)c1 | inconclusive: 35.5 µM [inhibitor, single point] | –
Cn1c(SCC(=O)N2CCCC2)nc2ccccc21 | inactive | –
O=C(COc1ccc(Cl)cc1)N1CCN(C(=O)c2cccs2)CC1 | – | inactive: 1.41% [at 9.22 µM]
COc1ccc(OC)c(NC(=O)CSc2ccc3ccccc3c2)c1 | inactive | –
O=C(ONc1ccc(N=NC(=O)c2ccccc2O)cc1)c1ccccc1 | inconclusive: 10 µM [inhibitor, partial curve] | –
COc1cccc(/C=N/NC(=O)CNC(=O)C2COc3ccccc3O2)c1O (stereo not drawn) | active: 12.6 µM | –
CC(C)NC(=S)N/N=C/c1sc(N2CCCCC2)nc1-c1cccs1 | inactive | –
O=C1CC(Sc2nnnn2C2CCCCC2)C(=O)N1c1ccccc1 (stereo not drawn) | inconclusive: 22.4 µM [inhibitor, single point] | –

In the list so far, 2 contain a COOH group:
Structure (SMILES) | Potency | activity change, negative = inhibition
C[C@H]1[C@@H](OC(=O)CCC(=O)O)OC2OC3(C)CC[C@H]4[C@H](C)CC[C@@H]1[C@@]24OO3 (stereo partly drawn) | active: 3.16 µM | –
COc1ccc(CCNC(=O)Cn2nc(C(=O)O)c3ccccc3c2=O)cc1OC | inconclusive: 22.4 µM [activator, single point] | –

Next part.

Structure (SMILES) | Potency | activity change, negative = inhibition
CCOC(=O)CC1C(=O)NCCN1S(=O)(=O)c1ccccc1Cl (stereo not drawn) | inactive | –
CN(Cc1c(F)cccc1Cl)c1ccc(S(=O)(=O)N2CCOCC2)cn1 | active: 3.55 µM | –
O=C1CCCC2=C1C(c1cccs1)Nc1ccc3ncccc3c12 (stereo not drawn) | inactive | –
CN(C)CCN1CC(O)=C(c2nc3ccccc3s2)C1=N | – | inactive: 3.14% [at 9.22 µM]
Cn1c(=O)c(C(=O)Nc2ccccn2)c(O)c2ccccc21 | inconclusive: 35.5 µM [inhibitor, single point] | –
Cc1cc(C(C)(C)C)oc1C(=O)N(CC(=O)NC1CCCC1)c1c(C)cccc1C | inconclusive: 25.1 µM [inhibitor, single point] | –
CC(NC(=O)CSC(=S)N(C)C)C12CC3CC(CC(C3)C1)C2 (stereo not drawn) | inactive | –
CCn1c(CCn2c3ccccc3c3ccccc32)n[nH]c1=S | inactive | –
COc1cc2[nH]c(=O)n(CCCC(=O)N3CC=C(c4ccccc4)CC3)c(=O)c2cc1OC | inconclusive: 0.891 µM [activator, full curve, poor fit] | –
NC(=O)CCC(NS(=O)(=O)c1ccc(Cl)cc1)C(=O)NCc1ccc(Cl)cc1 (stereo not drawn) | inconclusive: 3.55 µM [inhibitor, single point] | –
O=C(NC1CCCCC1)N1CCN(C(c2ccccc2)c2ccccc2)CC1 | inconclusive: 35.5 µM [inhibitor, single point] | –
CC(=O)Nc1ccc(NC(=O)[C@@H]2CCCN2S(=O)(=O)c2ccc3c(c2)OCCO3)cc1 | inactive | –
O=C(N/N=C/C=C/c1ccccc1[N+](=O)[O-])c1cc(-c2cccnc2)nc2ccccc12 | inactive | –
COC(=O)C1=C(C)NC(C)=C(C(=O)OC)C1c1ccc(NC(C)=O)cc1 | active: 3.16 µM | –
COc1cc(/C=N/NC(=O)CC23CC4CC(CC(C4)C2)C3)cc(Br)c1OCC(=O)N(C)C | inactive | –
O=C(CN1C(=O)C2CC=CCC2C1=O)Nc1nccs1 (stereo not drawn) | inconclusive: 0.891 µM [inhibitor, partial curve] | –
O=C(Nc1ccc(Cl)cc1)N(CCCN1CCOCC1)Cc1cccs1 | inactive | –
c1ccc2c(CCNc3ncnc4nc[nH]c34)c[nH]c2c1 | inconclusive: 11.2 µM [inhibitor, single point] | –
COc1ccc2nc(-c3ccco3)c(-c3ccco3)nc2c1 | inconclusive: 35.5 µM [activator, single point] | –
Cc1ccc2sc(NNC(=O)c3cc(=O)c4ccccc4o3)nc2c1C | – | inactive: -12.7% [at 9.22 µM]
Fc1ccc(C(c2nnnn2Cc2ccco2)N2CCN(C3CCCCC3)CC2)cc1 (stereo not drawn) | inconclusive: 2.24 µM [activator, partial curve] | –
Cc1ccc(Cn2nnc3c(=O)[nH]c(C4CCCN(C(=O)Nc5ccc(F)cc5F)C4)nc32)cc1 (stereo not drawn) | inactive | –
COc1ccc(N/N=C(\C#N)C(=N)N2CCCCC2)cc1 | – | inactive: 6.29% [at 9.22 µM]

Reformatted: results already given.
COc1ccc2nc(-c3ccco3)c(-c3ccco3)nc2c1
  Potency: inconclusive: 35.5 µM [activator, single point]
Cc1ccc2sc(NNC(=O)c3cc(=O)c4ccccc4o3)nc2c1C
  activity change, negative = inhibition: inactive: -12.7% [at 9.22 µM]
